## Primary screen of a compound library

Chains of the proteins cited; added tags and fusions are not shown.
UniProt P9WPC5, whole entry: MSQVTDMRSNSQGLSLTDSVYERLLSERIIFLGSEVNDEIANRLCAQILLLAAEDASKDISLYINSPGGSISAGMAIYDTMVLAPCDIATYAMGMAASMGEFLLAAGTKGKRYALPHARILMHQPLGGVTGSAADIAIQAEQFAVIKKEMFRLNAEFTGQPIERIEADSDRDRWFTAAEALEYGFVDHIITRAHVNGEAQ
UniProt P9WPC3, whole entry partner: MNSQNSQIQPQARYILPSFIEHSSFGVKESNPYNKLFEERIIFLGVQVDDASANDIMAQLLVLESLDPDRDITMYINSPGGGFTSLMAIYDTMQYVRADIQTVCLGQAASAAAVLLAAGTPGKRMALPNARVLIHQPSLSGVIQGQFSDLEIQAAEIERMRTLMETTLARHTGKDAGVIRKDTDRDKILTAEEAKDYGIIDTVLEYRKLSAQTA

From ChEMBL document CHEMBL3988442, “University of Dundee, Small-Polar-MMV Screening Library” (2021).

Toxoplasma: 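Assay of Toxoplasma gondii numbers, read through their beta-galactosidase reporter with a colour substrate. Tested at 10 µM. The record gives no direction; the compounds picked for IC50 retests had high values, so higher reads as fewer parasites. About 67,000 compounds were tested under these conditions; 0.38% (about 260) showed 50% or more at least once.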
ClpP1P2: 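ClpP1P2, Mycobacterium tuberculosis (UniProt P9WPC5 and UniProt P9WPC3). Protease assay of ClpP1P2, read by the AMC dye that it sets free. Concentration: 50 µM. Higher reads as stronger inhibition, judged from the few compounds that gave an IC50. Most other retested compounds had strongly negative values. Size under these conditions: about 69,000 compounds, about 10 of them at 50% or above in at least one test.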

Values are the deposited “Percent Effect”, in %.
How 0% and 100% were set is not recorded. Most values in the screen are low, and negative values occur.
This is an unselected part of the compounds tested.
A dash means the value is not listed here; it may have been measured.

structure,Toxoplasma,ClpP1P2
CC(C)NC(=O)NCCn1cnc(C2CCCC2)cc1=O,7.593,-3.659
Cc1cnc(NC(=O)CSC2CCc3ccccc3NC2=O)s1 (centres unmarked),2.618,-10.58
CN(C)C(=O)COCc1ncn2c1CN(c1ncc(F)cn1)CCC2,4.451,12.34
Cc1ccc(CN2Cc3nnn(C)c3C(COCc3ccccc3)C2)o1 (centres unmarked),-,13.98
CC(C)c1nc(C2CCCN(c3ncccn3)C2)no1 (centres unmarked),-7.271,8.273
CSCC(=O)N1CCOC(c2nc(C(C)(C)C)n[nH]2)C1 (centres unmarked),-,-4.113
N#Cc1ccsc1NC(=O)CN1CCn2c(nnc2C2CC2)C1,14.9,-20.21
CCOc1ncccc1CNC(=O)NC(C)Cn1cccn1 (centres unmarked),-3.559,-22.98
Cc1noc(CNc2ccccc2N2CCCCC2)n1,-3.713,-5.108
CN(C)CC1COCCN1C(=O)c1ccccc1C(=O)c1ccccc1 (centres unmarked),-,-8.173
CO[C@H]1CCN(C(=O)c2ccc3[nH]nnc3c2)C[C@@]12CCCO2,3.215,-19.01
CCCC(=O)N1CCC(C(=O)NCCNc2ncccn2)CC1,-21.43,2.504
Cc1oncc1NS(=O)(=O)c1c[nH]c2ncccc12,-2.415,-8.695
COc1cc(N2CCC3(CC2)CN(CCO)c2ccccc23)ncn1,15.64,-5.953
N[C@@H]1c2ccccc2C2(CCN(c3cccc(C(F)(F)F)n3)CC2)[C@H]1O,-31.34,-12.09
O=C(NCc1nnc2n1CCC2)N(Cc1ccco1)C1CC1,-3.116,0.9425
[H][C@@]12C[C@H](C(=O)NCc3ccccc3)[C@@]([H])(CN(S(=O)(=O)C3CC3)C1)O2,3.303,-
c1ccc2cc(OCCN3CCOC(Cn4cncn4)C3)ccc2c1 (centres unmarked),5.681,-5.854
O=C(COCC(F)(F)C(F)F)N1CCC(c2ncc[nH]2)CC1,-6.384,-5.283
CCc1cc(N[C@@H](CC(C)C)C(N)=O)n2nc(C)c(C)c2n1,-8.545,-14.72
Cc1c(CCC(=O)N2CCOC(c3cnccn3)C2)cnn1C (centres unmarked),-5.282,-5.756
CN(C)C(=O)c1nn(C)c2c1CN(Cc1cccs1)C2.O=C(O)C(F)(F)F.O=C(O)C(F)(F)F,4.142,-
CC(C)n1ccnc1CN1CCCN(C(=O)c2cccnc2O)CC1,-19.47,28.78
Cc1ccc(CNC(CCO)C2CCCCC2)nc1 (centres unmarked),-21.8,-13.94
CCc1nc(CN2CCCC(NCc3nc4ccccc4o3)C2)no1 (centres unmarked),7.307,1.78
CCCC(=O)Nc1ccc(CC(=O)N(CC)CC2CCCCO2)cc1 (centres unmarked),-21.16,-0.9314
O=C(NCC(F)F)N1CCC(n2ccc(C(F)(F)F)n2)CC1,-2.08,-13.39
O=C(c1cc(-n2cnnn2)ccc1Cl)N1CCC2(CC1)OCCO2,-2.765,-1.169
CCN(Cc1ccncc1)C(=O)C1COc2c(cccc2OC)C1 (centres unmarked),6.484,2.141
O=C(O)C(F)(F)F.O=C(O)C(F)(F)F.[H][C@@]12CN(CCOC)CCO[C@]1([H])CN(Cc1sccc1C)C2,-4.987,-
CC(NCCCC#N)c1ccc(-c2cccnc2)cc1 (centres unmarked),-8.319,10.25
CN1CCN(C(=O)c2n[nH]c3c2CCN(Cc2nccs2)C3)CC1,13.3,-4.929
COc1cc(-c2cnnc(NCCCOC(C)C)n2)cc(OC)c1OC,4.137,-0.9489
Cc1nc(C2CCN(C(=O)c3cnc(N(C)C)nc3)CC2)c2sccn12,-1.548,4.782
CN1CCc2ccc(NCc3cscn3)cc2C1=O,4.255,-24.31
O=C1CC(c2ccccc2)c2c(c(C(=O)O)cn2-c2ccccc2)N1 (centres unmarked),13.21,-7.627
CC(CN1CCOCC1)NC(=O)c1cc(Cl)c2c(c1)OCO2 (centres unmarked),15.88,2.606
Cc1ccc(C(=O)Nc2nnc(C(C)C)s2)c(-n2cnnn2)c1C,-5.286,13.14
CCCn1nc(C)c(CNC(=O)c2snnc2C)c1C,5.971,-9.242
Cc1ccc(-c2cc(CNC(=O)N3CCC(CO)CC3)on2)cc1,-0.2154,12.69
CCC(O)CNc1ccc(-c2nc(CC(C)C)no2)cn1 (centres unmarked),1.154,-5.972
Cc1nc(-c2cccnc2)ncc1C(=O)N1CCCCC(N)C1 (centres unmarked),2.858,-0.03538
CCCn1c(C)c(CC(=O)NCC(N)=O)c2c1CC(C)(C)CC2=O,6.345,-15.18
Cc1nc(COc2ccc(OC(C)C(N)=O)cc2)oc1C (centres unmarked),-0.4428,-20.58
Cc1cc(NS(=O)(=O)c2c[nH]c3ncccc23)no1,-0.115,-2.482
Cc1cc(NCc2cc(C)oc2C(F)(F)F)n2nc(C)cc2n1,-8.561,-6.154
Cc1c(C(=O)NC2(C#N)CCSC2)cnn1-c1ccccc1Cl (centres unmarked),-0.5288,4.048
CCNC(=O)[C@@H]1C[C@H](N)CN1C(=O)CCc1ccc(C)c(C)c1,3.475,-0.8958
Cn1ncc2c(=O)[nH]c(N3CCCC3c3cccc(Cl)c3)nc21 (centres unmarked),0.5895,-0.679
Cc1ccc(C(=O)N(C)Cc2csc(C)n2)c(=O)[nH]1,15.57,2.09

For reference, 6 entries once more:

| structure | Toxoplasma | ClpP1P2 |
|---|---|---|
| `CC(C)c1nc(C2CCCN(c3ncccn3)C2)no1` (centres unmarked) | -7.271 | 8.273 |
| `N[C@@H]1c2ccccc2C2(CCN(c3cccc(C(F)(F)F)n3)CC2)[C@H]1O` | -31.34 | -12.09 |
| `Cc1cc(NS(=O)(=O)c2c[nH]c3ncccc23)no1` | -0.115 | -2.482 |
| `CCCC(=O)N1CCC(C(=O)NCCNc2ncccn2)CC1` | -21.43 | 2.504 |
| `CCCC(=O)Nc1ccc(CC(=O)N(CC)CC2CCCCO2)cc1` (centres unmarked) | -21.16 | -0.9314 |
| `CN1CCN(C(=O)c2n[nH]c3c2CCN(Cc2nccs2)C3)CC1` | 13.3 | -4.929 |